Results: PubChem BioAssay AID540276 (National Center for Advancing Translational Sciences (NCATS), 2011)
About 5,400 (1.8%) of roughly 300,000 compounds were called active. Inconclusive means that the source gave no clear call. Such entries were picked first, then a sample of the others. The call rests on the fitted dose curve; tested in HEK293 cells. Potencies beside an inconclusive call are fits to weak or partial responses and may not hold up.

Assay: qHTS for inhibitors of binding or entry into cells for Marburg Virus
Settings: Marburg virus pseudotyped entry inhibition, cell reporter; activity change, negative = inhibition: at 37.8 µM (top of the series) unless noted
On the % scale 0 is the no-effect control and ±100 the full control effect; potency means the concentration at half of the fitted maximal effect.

Row | SMILES | Potency | activity change, negative = inhibition
1 | COc1ccc2c(-c3ccccc3)cc(SCC(=O)NC3CCS(=O)(=O)C3)nc2c1 (centres undefined) | inconclusive: 15.8 µM [inhibitor, single point] | –
2 | COc1cccc(COC(=O)C2CCN(S(=O)(=O)c3ccc(Cl)cc3)CC2)c1OC | inconclusive: 11.2 µM [activator, partial curve, poor fit] | –
3 | CCOc1cc(C2Nc3ccccc3C(=O)N2c2ccccc2)ccc1O (centres undefined) | inconclusive: 4.11 µM [activator, single point] | –
4 | Cc1ccc(Sc2ncccc2COC(=O)Nc2ccccc2)cc1 | – | inactive: -28.5%
5 | O=C(O)c1ccc(C2SCC(=O)N2Cc2ccccc2)cc1 (centres undefined) | – | inactive: 3.78%
6 | CC1CN(S(=O)(=O)c2cccc(C(=O)Nc3ccccc3N3CCOCC3)c2)CC(C)O1 (centres undefined) | inconclusive: 5.01 µM [inhibitor, partial curve, poor fit] | –
7 | N#Cc1sc2nc(N3CCCCC3)c3c(c2c1N)CCCC3 | inconclusive: 14.1 µM [inhibitor, partial curve, poor fit] | –
8 | O=C(COc1ccc(Cl)cc1Cl)NCCCn1ccnc1 | – | inactive: -3.6%
9 | Cc1noc(C)c1C(=O)Nc1nc(-c2ccc([N+](=O)[O-])cc2)cs1 | – | inactive: -8.58%
10 | COc1ccc(Cl)cc1NC(=O)CN1CCC(NC(=O)C2CC2)CC1 | inconclusive: 1.26 µM [inhibitor, partial curve, poor fit] | –
11 | O=C1C(=NO)CCc2ccccc21 | inconclusive: 35.5 µM [inhibitor, single point] | –
12 | CC(=O)n1nc(-c2ccccc2)nc1NCc1cccs1 | – | inactive: 4.9%
13 | Cc1cc(C)nc(SCc2ccc(C(=O)N/N=C/c3ccccn3)cc2)n1 | inconclusive: 31.6 µM [inhibitor, partial curve, poor fit] | –
14 | COC(=O)c1ccc(C(=S)NCC2(N(C)C)CCCCC2)cc1 | inconclusive: 11.2 µM [inhibitor, partial curve, poor fit] | –
15 | CC(=O)c1ccc(N2CCN(C(=O)c3cc4c(s3)-c3ccccc3OC4)CC2)cc1 | – | inactive: 12.8% [at 46.1 µM]
16 | N#Cc1c(NC(=O)CCn2cnc3ccccc3c2=O)oc(-c2ccccc2)c1-c1ccccc1 | inconclusive: 35.5 µM [inhibitor, single point] | –
17 | NNC(=O)CSc1cccc2cccnc12 | – | inactive: 11.3%
18 | COc1ccc(NC(=O)CSc2nc(-c3ccccc3)[nH]c2-c2ccccc2)cc1OC | inconclusive: 35.5 µM [inhibitor, single point] | –
19 | COc1ccc(-n2cccc2/C=C/[N+](=O)[O-])cc1 | inconclusive: 20.6 µM [inhibitor, single point] | –
20 | O=C(O)c1cccc(Oc2cccc(Cl)n2)c1 | inconclusive: 28.2 µM [activator, single point] | –
21 | O=C(Nc1cccc(S(=O)(=O)N2CCCCC2)c1)c1ccccn1 | – | inactive: -3.18% [at 46.1 µM]
22 | C#CC(=O)N(c1cc(OC)ccc1OC)C(C(=O)NC1CCCC1)c1cccs1 (centres undefined) | active: 2 µM | –

Row | SMILES | Potency | activity change, negative = inhibition
23 | Cc1cc(C)nc(NS(=O)(=O)c2ccc(NC(=O)c3nc(SC(C)C)ncc3Cl)cc2)n1 | – | inactive: -15.4% [at 46.1 µM]
24 | CCOC(=O)c1ccc(NC2=CC(=O)C(=O)c3ccccc32)cc1 | inconclusive: 35.5 µM [inhibitor, single point] | –
25 | CCNC(=O)c1ccc(C23CC4CC(CC(C4)C2)C3)o1 | – | inactive: -4.15% [at 46.1 µM]
26 | O=C1N=C(N2CCCCC2)S/C1=C\c1ccncc1 | inconclusive: 0.891 µM [inhibitor, partial curve, poor fit] | –
27 | Cn1c(-c2cccc([N+](=O)[O-])c2)cnc1NCc1ccc(C#N)cc1 | – | inactive: -13.6%
28 | S=C(NCc1ccncc1)Nc1ccc(Cl)c(Cl)c1 | inconclusive: 20.6 µM [inhibitor, single point] | –
29 | CC(=O)c1nn(-c2cccc(Br)c2)cc1C(=O)c1ccc(Cl)cc1 | inconclusive: 8.91 µM [inhibitor, partial curve, poor fit] | –
30 | O=C(CCS(=O)(=O)c1nc(-c2cccs2)cc(C(F)(F)F)n1)Nc1ccc(F)c(Cl)c1 | – | inactive: 26.8% [at 46.1 µM]
31 | Oc1ccc2ccccc2c1CN1CCN(C/C=C/c2ccccc2)CC1 | inconclusive: 8.91 µM [inhibitor, partial curve, poor fit] | –
32 | CCOc1ccccc1N(CC(=O)Nc1cccc(OC)c1)S(=O)(=O)c1ccccc1 | inconclusive: 22.4 µM [inhibitor, partial curve, poor fit] | –
33 | O=[N+]([O-])c1cc(-c2nnc(Nc3ccc(O)cc3)c3ccccc23)ccc1N1CCOCC1 | inconclusive: 25.1 µM [inhibitor, partial curve, poor fit] | –
34 | C[n+]1ccc(/C=C/c2ccc(Br)cc2)cc1 | inconclusive: 11.2 µM [inhibitor, partial curve, poor fit] | –
35 | CN(Cc1ccccc1)c1ccc2nnc(-c3ccccc3)n2n1 | inconclusive: 29.1 µM [inhibitor, single point] | –
36 | O=C(NC(NC(=S)Nc1ccc(Cl)c(Cl)c1)C(Cl)(Cl)Cl)c1ccco1 (centres undefined) | inconclusive: 35.5 µM [inhibitor, single point] | –
37 | CCc1c(C)sc(NC(=O)c2cc(-c3cc(OC)ccc3OC)on2)c1C#N | inconclusive: 29.1 µM [inhibitor, single point] | –
38 | Cc1ccc(NS(=O)(=O)c2ccc(C(=O)N3CCN(c4ncccn4)CC3)cc2)cc1 | inconclusive: 7.94 µM [inhibitor, partial curve, poor fit] | –
39 | CCc1ccc(NC(=O)C2CCCN(S(=O)(=O)c3c(C)noc3/C=C/N(C)C)C2)cc1 (centres undefined) | – | inactive: -5.01% [at 46.1 µM]
40 | NNC(=O)c1ccc(COc2ccc3c(c2)CCC3)o1 | inconclusive: 1.26 µM [activator, single point] | –
41 | COc1ccccc1N1CCN(Cc2ccc(OC)c3ccccc23)CC1 | inconclusive: 8.2 µM [inhibitor, partial curve] | –
42 | COc1ccc(C2OC(=O)Cc3cc(OC)c(OC)cc32)cc1 (centres undefined) | inconclusive: 11.2 µM [activator, partial curve] | –
43 | Cc1cccc(NS(=O)(=O)c2ccc(OCC(=O)N3CCCC3)cc2)c1 | – | inactive: -7.85%
44 | COc1ccc(N2CCc3c(C)nc4c(OC)cc(OC)cc4c32)cc1 | inconclusive: 1.26 µM [inhibitor, full curve, poor fit] | –

Entries shown so far containing bromine (two):
Row | SMILES | Potency | activity change, negative = inhibition
29 | CC(=O)c1nn(-c2cccc(Br)c2)cc1C(=O)c1ccc(Cl)cc1 | inconclusive: 8.91 µM [inhibitor, partial curve, poor fit] | –
34 | C[n+]1ccc(/C=C/c2ccc(Br)cc2)cc1 | inconclusive: 11.2 µM [inhibitor, partial curve, poor fit] | –
